# Reference: paper PMC7819943, “Rice protein-binding microarrays: a tool to detect cis-acting elements near promoter regions in rice”
# Sequences of proteins named here, by UniProt entry; tags and fusion partners are left off.
# UniProt Q0JBA9, entry or part of it: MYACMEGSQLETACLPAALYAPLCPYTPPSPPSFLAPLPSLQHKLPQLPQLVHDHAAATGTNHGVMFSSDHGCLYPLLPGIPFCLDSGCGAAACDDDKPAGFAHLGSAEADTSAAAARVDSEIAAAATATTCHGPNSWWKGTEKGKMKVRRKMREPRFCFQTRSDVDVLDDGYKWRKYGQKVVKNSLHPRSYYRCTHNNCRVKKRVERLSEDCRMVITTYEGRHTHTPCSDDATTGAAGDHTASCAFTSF
# The list shows a part of the results.
# Molecular target: OsWRKY34 (Oryza sativa, UniProt Q0JBA9 1-250)
# Assay: protein-binding microarray (RPBM); PBS, 2% BSA, 51.3 ng/ul salmon testes DNA, 50 uM zinc acetate, 200 nM TF, 25 C, 1 h; high values mean tight binding
# Conditions: protein: recombinant; tags: N-terminal polyhistidine and DsRed monomer fusion (pET32a); label: CyDye5-dUTP incorporated in the synthesized complementary strand; 3' TTTTT single-stranded linker to array surface; dsDNA, one strand shown
# In short: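 The binding signal is fluorescence intensity per array feature (arbitrary units). Readings came from an Axon 4000B scanner after a washed, 2% BSA-blocked, double-stranded custom Agilent array had been incubated for 1 h at 25 °C with 200 nM protein and 50 µM zinc acetate. The protein was a Ni–NTA-purified transcription factor fused N-terminally to polyhistidine and DsRed, expressed in E. coli BL21-CodonPlus.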
row,Sequence,binding signal
1,CCCTTTACTTGATTTTCTGCTGGTTGGTTTATCTTTTATTCGGAGTCACCTAGTGCAG,19600 fluorescence intensity (a.u.)
2,TACTGCTATACACATGTTCTGTATTCTTACTTGTAACAGCCGGAGTCACCTAGTGCAG,8540 fluorescence intensity (a.u.)
3,CTTATTGTTCATCATCCTCCTCCTCATAGCTGACCAAATCCGGAGTCACCTAGTGCAG,9200 fluorescence intensity (a.u.)
4,TTAACTATAACCACTTTCGCATTCTCTATCGTTTTGACCACGGAGTCACCTAGTGCAG,8450 fluorescence intensity (a.u.)
5,TGGTGGGTGCATTGTTGTTCACATTCCGGATCCCTGCATCCGGAGTCACCTAGTGCAG,9220 fluorescence intensity (a.u.)
6,CGCCACCACCTACATTAAAGCTCTACCATTTACTAACGAGCGGAGTCACCTAGTGCAG,8350 fluorescence intensity (a.u.)
7,GCTCTTTGACATCAGTTTTTCTTACTTCTATGTGATTTACCGGAGTCACCTAGTGCAG,8540 fluorescence intensity (a.u.)
8,CTCTCTCTCTCTCTTTATTTTTTTTTAATACGCAAGAAGCCGGAGTCACCTAGTGCAG,8230 fluorescence intensity (a.u.)
9,TTGACACCGTTAACTTTTTAGCATATGTTTGACCGTTCATCGGAGTCACCTAGTGCAG,9610 fluorescence intensity (a.u.)
10,CTCTTAATTTAGGGGTGGCTCATCATCTCTCTCCTCACTTCGGAGTCACCTAGTGCAG,9920 fluorescence intensity (a.u.)
11,CAGCGGGCCCAGCAAGTCAGCCTCACATCTTCTTCTTCATCGGAGTCACCTAGTGCAG,8340 fluorescence intensity (a.u.)
12,CCAAATTTCATCGGCGCATTGGGGTGGAGTTTGATCTCTTCGGAGTCACCTAGTGCAG,8750 fluorescence intensity (a.u.)
13,TCGCTCGCCGCCGCGTCGCGTCGCGCCGCCACCTCACGCCCGGAGTCACCTAGTGCAG,9040 fluorescence intensity (a.u.)
14,GATCGCCCCGGGCCGGCCCTGACCGCTCGATCGCCCGCCGCGGAGTCACCTAGTGCAG,8130 fluorescence intensity (a.u.)
15,TTCCGTCCGATATCGGTATATTCCCGTTCCGACTGTTCCGCGGAGTCACCTAGTGCAG,10600 fluorescence intensity (a.u.)
16,CCTTGTTTAGTTGGCAAAAAATTTTGAGCTGACATGTCACCGGAGTCACCTAGTGCAG,8230 fluorescence intensity (a.u.)
17,GGGTGGTAAAGCATGTTTTTTGAGGGGAGGGTGGTAAAGCCGGAGTCACCTAGTGCAG,16000 fluorescence intensity (a.u.)
18,ATGTCTCCAAGAGCCGAGCAGGTGGGCCCCTAACCATCACCGGAGTCACCTAGTGCAG,8570 fluorescence intensity (a.u.)
19,ACGGTCGTTCATTCAGTGGCACAACAGCAAATTACCTTTTCGGAGTCACCTAGTGCAG,8920 fluorescence intensity (a.u.)
20,GCAGCGCCTGATCGATTACTACTTCGCCATGGTGCCAACTCGGAGTCACCTAGTGCAG,8910 fluorescence intensity (a.u.)
21,ATATATATATATATATATATATATATATATATGCAGCATGCGGAGTCACCTAGTGCAG,13100 fluorescence intensity (a.u.)

row,Sequence,binding signal
1,GACAATTATCGCATCCCACGAAATTTCAACTATTACTATTCGGAGTCACCTAGTGCAG,8040 fluorescence intensity (a.u.)
2,GTTTCATTTGTAGCTGTTGATTTGACTGTAAACCCCTTTTCGGAGTCACCTAGTGCAG,8930 fluorescence intensity (a.u.)
3,AATCTCCTCTGCTCGCCGCGCGCCACTTCCTCACTCCTCGCGGAGTCACCTAGTGCAG,8560 fluorescence intensity (a.u.)
4,CCTCCTACTTTCTTGTTACATCTTCGTGAGCATCCTTGTACGGAGTCACCTAGTGCAG,10000 fluorescence intensity (a.u.)
5,AGGTGTGGTATATAGGTACCAATTGATGAGTGTTGCTGCTCGGAGTCACCTAGTGCAG,11100 fluorescence intensity (a.u.)
6,GATGGTAGGATAAACAAATGGGTAATGGAGGATACGTGCTCGGAGTCACCTAGTGCAG,8050 fluorescence intensity (a.u.)
7,CCCAGAGCGCTTCATGCTTTGCCTTTCATCTTCATTCATTCGGAGTCACCTAGTGCAG,11500 fluorescence intensity (a.u.)
8,ATTAATTTCGCTTGCTAACACGAGTTTAATCTGCCAATTTCGGAGTCACCTAGTGCAG,10000 fluorescence intensity (a.u.)
9,ATTGTATTTCTATATGGACTCTATACTCTACTTCTAATATCGGAGTCACCTAGTGCAG,9270 fluorescence intensity (a.u.)
10,TCATCATCCATTCATTCATTCATTCACATCTCCATCGCTACGGAGTCACCTAGTGCAG,8470 fluorescence intensity (a.u.)
11,CGCTCCGTCTTCTCCTTCCCCTTCCTGGGCTTCTTCTGCTCGGAGTCACCTAGTGCAG,8340 fluorescence intensity (a.u.)
12,AAGGCTTTGTACAGGTTCATTGTACTAGGAGGGGAGGGGTCGGAGTCACCTAGTGCAG,12100 fluorescence intensity (a.u.)
13,TTGGATTGGGCTGCGGACCTGCGGTGGAGGGATTCAGGGTCGGAGTCACCTAGTGCAG,8240 fluorescence intensity (a.u.)
14,TTCCACGTTACACAGTATATCTCTCCTATACTATCCAACACGGAGTCACCTAGTGCAG,8240 fluorescence intensity (a.u.)
15,TTTCTTGATTTGGTTGGGATTGGTTGTTCTTGGGCTTATCCGGAGTCACCTAGTGCAG,18900 fluorescence intensity (a.u.)
16,GCACTACTCCTTTCCTTTTCTTTTTCCCTCCTTGAGATTCCGGAGTCACCTAGTGCAG,8490 fluorescence intensity (a.u.)
17,AGCTATTACTTCGTGACCAACTTTGATCGTCCGTCTTATTCGGAGTCACCTAGTGCAG,13200 fluorescence intensity (a.u.)
18,GTATGGGTGTGTTTAGTTCTTTGGGTGTAAAGTTTTTAAGCGGAGTCACCTAGTGCAG,9730 fluorescence intensity (a.u.)
19,CCCGCCCCGCCGCCTCGTCGCCCGCCCGAGATCCGCTCCGCGGAGTCACCTAGTGCAG,8580 fluorescence intensity (a.u.)
20,TGGTGAAATCACCTGGTTCAGTCTCTACCGTCCATACGCACGGAGTCACCTAGTGCAG,8920 fluorescence intensity (a.u.)
21,TTCACAGTGTAGTTGTTTTATTTAGCCAGTATTTTTTTTTCGGAGTCACCTAGTGCAG,8820 fluorescence intensity (a.u.)

row,Sequence,binding signal
1,GAGTCTTTGGAAGGGGTCATTTTACGGTTTGGTCCCTGGACGGAGTCACCTAGTGCAG,8350 fluorescence intensity (a.u.)
2,TTGCCTTTCATGGTGCGCTTTTGTTGCCATTCTCTTCGTGCGGAGTCACCTAGTGCAG,8340 fluorescence intensity (a.u.)
3,TTTATACTACTGTCAAAAGGTTCTACAACAACACTTTGTTCGGAGTCACCTAGTGCAG,8200 fluorescence intensity (a.u.)
4,GACATTTACATGTACTGATTGCTGATTGCCATTGATTCATCGGAGTCACCTAGTGCAG,8980 fluorescence intensity (a.u.)
5,ATCTCTCTTGTTTTCCATTGCCTACCAAGTGCCATATGATCGGAGTCACCTAGTGCAG,8630 fluorescence intensity (a.u.)
6,AGCACACAGCTATACCTCTGTTTTTTTTTCTTTTATTCCCCGGAGTCACCTAGTGCAG,12000 fluorescence intensity (a.u.)
7,CCTCCGCCGCATCCGCCTCCGCCTCCGCCTTATTGCTCACCGGAGTCACCTAGTGCAG,11400 fluorescence intensity (a.u.)
8,CAATTTATCCCAATTATGATCTGATTATACCATTGTTTTCCGGAGTCACCTAGTGCAG,10300 fluorescence intensity (a.u.)
9,CTCTCGACCACTTCCATTCCTTCCCGGGCTCGCCGCGCCGCGGAGTCACCTAGTGCAG,9780 fluorescence intensity (a.u.)
10,GGGTGTGGAAGCGCCGGGGTTCATGGGGATTGGGGAGGCCCGGAGTCACCTAGTGCAG,10400 fluorescence intensity (a.u.)
11,TTTCATCCAACAGAGTTGCTGTTGACCGTTGACCTTTTTGCGGAGTCACCTAGTGCAG,15700 fluorescence intensity (a.u.)
12,CAAGAACCACCATCACTTCCCTACCACTCCACTACTAGCCCGGAGTCACCTAGTGCAG,9900 fluorescence intensity (a.u.)
13,GCCCCGACACCCGGCGTTCCACGTCCGGCTTTTGCATCTTCGGAGTCACCTAGTGCAG,10600 fluorescence intensity (a.u.)
14,AGCTGCGAGAAAATTCTCTTCACCTCGCCTACCGCCGCACCGGAGTCACCTAGTGCAG,8350 fluorescence intensity (a.u.)
15,CCTCACGCAGCTCATGCATTCTCGCTGACCATCCTTCCCGCGGAGTCACCTAGTGCAG,11900 fluorescence intensity (a.u.)
16,TCACATAGCCTCGGCCCAGCGCTACCTCAAGTTCCGCCTTCGGAGTCACCTAGTGCAG,10300 fluorescence intensity (a.u.)
17,CCTTGCTTTTTCAACAACCTTTCGTTCAATTAATTAACAACGGAGTCACCTAGTGCAG,11300 fluorescence intensity (a.u.)
18,AATCTCTCATTTTAGTGCGCCTACTCAACCTTCAGTTTCACGGAGTCACCTAGTGCAG,11900 fluorescence intensity (a.u.)
19,TTCTGGCCGCTCGCCCATCTCTACCGTTGGTTTCCGCCGCCGGAGTCACCTAGTGCAG,8660 fluorescence intensity (a.u.)
20,TCAAGTCAAATAGTTCAATATCTATTTTTGGTCTTCTCTACGGAGTCACCTAGTGCAG,8030 fluorescence intensity (a.u.)
21,CGTTATTTCTAAAAGGTGCGGGGTGAGGGATGTGGGGTGGCGGAGTCACCTAGTGCAG,10600 fluorescence intensity (a.u.)

row,Sequence,binding signal
1,CTCTCTTGTCTCTTCAACTCTTTGCGTCTTGTCGGCACCGCGGAGTCACCTAGTGCAG,8540 fluorescence intensity (a.u.)
2,AAGATATTTTCAATGTATTTTTTTATTGTTGACTTTTAAACGGAGTCACCTAGTGCAG,9030 fluorescence intensity (a.u.)
3,AGATTCCCTTTGCTGATTTGCTCCTTCAATCCCTACAATTCGGAGTCACCTAGTGCAG,9660 fluorescence intensity (a.u.)
4,CTCCTCTCCTCTCTGTCTCTTCTTCTCGCTGCTCCCAATGCGGAGTCACCTAGTGCAG,8300 fluorescence intensity (a.u.)
5,GCTACGAGTCTACTCCCACTTCGTCTGCTTGTGTTTTGGTCGGAGTCACCTAGTGCAG,9240 fluorescence intensity (a.u.)
6,CCGCTCCGCTCCTTCCGCTCGAGCATCTCTCTCTGGTCTCCGGAGTCACCTAGTGCAG,9530 fluorescence intensity (a.u.)
7,GCACCCACGCTGTGAGCCCCACCCGCGTACGCCGCGGCCTCGGAGTCACCTAGTGCAG,8150 fluorescence intensity (a.u.)
8,CTCGTCCGCTTCCTTGTGCTTCCTCTTGTAGGCCAGCTTCCGGAGTCACCTAGTGCAG,9940 fluorescence intensity (a.u.)
9,TTTTGGGTGCTCTTTGACTTAGTCGAAGTGATCCTCTTGACGGAGTCACCTAGTGCAG,8770 fluorescence intensity (a.u.)
10,CTGTCCATATACACTTTGTTTTTCTCCATACCTGTAACAACGGAGTCACCTAGTGCAG,8530 fluorescence intensity (a.u.)
11,CAGCCACTCGATCGTTATCCCTTGTCCGTCTTGCCTTGCCCGGAGTCACCTAGTGCAG,12200 fluorescence intensity (a.u.)
12,GCGATGCGCTTGTGCTGCTGCTGTTCGTCGTGTATTGCTCCGGAGTCACCTAGTGCAG,8140 fluorescence intensity (a.u.)
13,TGAACTTTCAACCTTGGCCTTTGGTGCTGTTTTCTTATCTCGGAGTCACCTAGTGCAG,8990 fluorescence intensity (a.u.)
14,TTTAATGTATGACACCGTTGACTTTTTAACCAACGTTTGACGGAGTCACCTAGTGCAG,36300 fluorescence intensity (a.u.)
15,ATTTTTTATGGGTGTTTGGTTAGTGGGTGGGAGTGGGATACGGAGTCACCTAGTGCAG,12000 fluorescence intensity (a.u.)
16,TGAACAAGCTGCTTTAAATTTATTCCTCAGGTTCTTAGTACGGAGTCACCTAGTGCAG,8660 fluorescence intensity (a.u.)
17,TTTTATTTGTTGCAGTGTGTTATTGGAATGAGGGTCTTTTCGGAGTCACCTAGTGCAG,8680 fluorescence intensity (a.u.)
18,GCACTTATCGTTTATTTTCTTATAATTTATTTTATCATTGCGGAGTCACCTAGTGCAG,8830 fluorescence intensity (a.u.)
19,GCTCTGAATTTTATTTTTTCCGCTTCTTGATTTCTTCGTTCGGAGTCACCTAGTGCAG,9450 fluorescence intensity (a.u.)
20,GCCTCTAACACGTCTCTCCAGGTATATTGCTAAAATGAGGCGGAGTCACCTAGTGCAG,9840 fluorescence intensity (a.u.)
21,CTATTGGCCTAGCCTTTTTGTTTTTTTTTCTATTTTAAGTCGGAGTCACCTAGTGCAG,11800 fluorescence intensity (a.u.)

# Copied from the list.
# binding signal, TTTTGGGTGCTCTTTGACTTAGTCGAAGTGATCCTCTTGACGGAGTCACCTAGTGCAG is entered as 8770 fluorescence intensity (a.u.)
# binding signal, CTCTCTTGTCTCTTCAACTCTTTGCGTCTTGTCGGCACCGCGGAGTCACCTAGTGCAG is entered as 8540 fluorescence intensity (a.u.)
# binding signal, AAGATATTTTCAATGTATTTTTTTATTGTTGACTTTTAAACGGAGTCACCTAGTGCAG is entered as 9030 fluorescence intensity (a.u.)
# binding signal, TGAACTTTCAACCTTGGCCTTTGGTGCTGTTTTCTTATCTCGGAGTCACCTAGTGCAG is entered as 8990 fluorescence intensity (a.u.)
# binding signal, CTCGTCCGCTTCCTTGTGCTTCCTCTTGTAGGCCAGCTTCCGGAGTCACCTAGTGCAG is entered as 9940 fluorescence intensity (a.u.)
